Measurements published in PMC11364392.
Results are given in words; binding and its absence hold for the method and conditions named. In cells and extracts the contact can be indirect. Some entries that bind do so weakly or less than the wild type.

Chains of the proteins cited; added tags and fusions are not shown. Residues count along the entry.
UniProt P05106, residues 27-788: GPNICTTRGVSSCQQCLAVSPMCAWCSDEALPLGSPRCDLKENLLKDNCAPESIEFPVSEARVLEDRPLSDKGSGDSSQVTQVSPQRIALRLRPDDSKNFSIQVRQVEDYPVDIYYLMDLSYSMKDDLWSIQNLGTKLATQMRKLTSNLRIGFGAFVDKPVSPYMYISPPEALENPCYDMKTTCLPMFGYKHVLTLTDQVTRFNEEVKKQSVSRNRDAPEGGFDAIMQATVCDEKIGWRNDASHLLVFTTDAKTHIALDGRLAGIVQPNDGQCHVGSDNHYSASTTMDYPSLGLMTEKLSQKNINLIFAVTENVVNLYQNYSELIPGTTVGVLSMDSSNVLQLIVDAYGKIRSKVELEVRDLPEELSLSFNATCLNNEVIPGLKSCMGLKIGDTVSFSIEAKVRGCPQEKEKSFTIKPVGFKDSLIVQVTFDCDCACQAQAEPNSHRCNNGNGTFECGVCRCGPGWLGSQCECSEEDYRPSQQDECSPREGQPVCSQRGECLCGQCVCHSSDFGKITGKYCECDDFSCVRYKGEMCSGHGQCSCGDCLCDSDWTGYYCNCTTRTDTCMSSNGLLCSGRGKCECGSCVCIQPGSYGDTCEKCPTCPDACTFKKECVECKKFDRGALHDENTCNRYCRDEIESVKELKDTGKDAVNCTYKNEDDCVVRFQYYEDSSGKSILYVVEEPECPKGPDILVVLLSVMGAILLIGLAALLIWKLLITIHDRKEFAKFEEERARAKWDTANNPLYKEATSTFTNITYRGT
UniProt Q9Y490: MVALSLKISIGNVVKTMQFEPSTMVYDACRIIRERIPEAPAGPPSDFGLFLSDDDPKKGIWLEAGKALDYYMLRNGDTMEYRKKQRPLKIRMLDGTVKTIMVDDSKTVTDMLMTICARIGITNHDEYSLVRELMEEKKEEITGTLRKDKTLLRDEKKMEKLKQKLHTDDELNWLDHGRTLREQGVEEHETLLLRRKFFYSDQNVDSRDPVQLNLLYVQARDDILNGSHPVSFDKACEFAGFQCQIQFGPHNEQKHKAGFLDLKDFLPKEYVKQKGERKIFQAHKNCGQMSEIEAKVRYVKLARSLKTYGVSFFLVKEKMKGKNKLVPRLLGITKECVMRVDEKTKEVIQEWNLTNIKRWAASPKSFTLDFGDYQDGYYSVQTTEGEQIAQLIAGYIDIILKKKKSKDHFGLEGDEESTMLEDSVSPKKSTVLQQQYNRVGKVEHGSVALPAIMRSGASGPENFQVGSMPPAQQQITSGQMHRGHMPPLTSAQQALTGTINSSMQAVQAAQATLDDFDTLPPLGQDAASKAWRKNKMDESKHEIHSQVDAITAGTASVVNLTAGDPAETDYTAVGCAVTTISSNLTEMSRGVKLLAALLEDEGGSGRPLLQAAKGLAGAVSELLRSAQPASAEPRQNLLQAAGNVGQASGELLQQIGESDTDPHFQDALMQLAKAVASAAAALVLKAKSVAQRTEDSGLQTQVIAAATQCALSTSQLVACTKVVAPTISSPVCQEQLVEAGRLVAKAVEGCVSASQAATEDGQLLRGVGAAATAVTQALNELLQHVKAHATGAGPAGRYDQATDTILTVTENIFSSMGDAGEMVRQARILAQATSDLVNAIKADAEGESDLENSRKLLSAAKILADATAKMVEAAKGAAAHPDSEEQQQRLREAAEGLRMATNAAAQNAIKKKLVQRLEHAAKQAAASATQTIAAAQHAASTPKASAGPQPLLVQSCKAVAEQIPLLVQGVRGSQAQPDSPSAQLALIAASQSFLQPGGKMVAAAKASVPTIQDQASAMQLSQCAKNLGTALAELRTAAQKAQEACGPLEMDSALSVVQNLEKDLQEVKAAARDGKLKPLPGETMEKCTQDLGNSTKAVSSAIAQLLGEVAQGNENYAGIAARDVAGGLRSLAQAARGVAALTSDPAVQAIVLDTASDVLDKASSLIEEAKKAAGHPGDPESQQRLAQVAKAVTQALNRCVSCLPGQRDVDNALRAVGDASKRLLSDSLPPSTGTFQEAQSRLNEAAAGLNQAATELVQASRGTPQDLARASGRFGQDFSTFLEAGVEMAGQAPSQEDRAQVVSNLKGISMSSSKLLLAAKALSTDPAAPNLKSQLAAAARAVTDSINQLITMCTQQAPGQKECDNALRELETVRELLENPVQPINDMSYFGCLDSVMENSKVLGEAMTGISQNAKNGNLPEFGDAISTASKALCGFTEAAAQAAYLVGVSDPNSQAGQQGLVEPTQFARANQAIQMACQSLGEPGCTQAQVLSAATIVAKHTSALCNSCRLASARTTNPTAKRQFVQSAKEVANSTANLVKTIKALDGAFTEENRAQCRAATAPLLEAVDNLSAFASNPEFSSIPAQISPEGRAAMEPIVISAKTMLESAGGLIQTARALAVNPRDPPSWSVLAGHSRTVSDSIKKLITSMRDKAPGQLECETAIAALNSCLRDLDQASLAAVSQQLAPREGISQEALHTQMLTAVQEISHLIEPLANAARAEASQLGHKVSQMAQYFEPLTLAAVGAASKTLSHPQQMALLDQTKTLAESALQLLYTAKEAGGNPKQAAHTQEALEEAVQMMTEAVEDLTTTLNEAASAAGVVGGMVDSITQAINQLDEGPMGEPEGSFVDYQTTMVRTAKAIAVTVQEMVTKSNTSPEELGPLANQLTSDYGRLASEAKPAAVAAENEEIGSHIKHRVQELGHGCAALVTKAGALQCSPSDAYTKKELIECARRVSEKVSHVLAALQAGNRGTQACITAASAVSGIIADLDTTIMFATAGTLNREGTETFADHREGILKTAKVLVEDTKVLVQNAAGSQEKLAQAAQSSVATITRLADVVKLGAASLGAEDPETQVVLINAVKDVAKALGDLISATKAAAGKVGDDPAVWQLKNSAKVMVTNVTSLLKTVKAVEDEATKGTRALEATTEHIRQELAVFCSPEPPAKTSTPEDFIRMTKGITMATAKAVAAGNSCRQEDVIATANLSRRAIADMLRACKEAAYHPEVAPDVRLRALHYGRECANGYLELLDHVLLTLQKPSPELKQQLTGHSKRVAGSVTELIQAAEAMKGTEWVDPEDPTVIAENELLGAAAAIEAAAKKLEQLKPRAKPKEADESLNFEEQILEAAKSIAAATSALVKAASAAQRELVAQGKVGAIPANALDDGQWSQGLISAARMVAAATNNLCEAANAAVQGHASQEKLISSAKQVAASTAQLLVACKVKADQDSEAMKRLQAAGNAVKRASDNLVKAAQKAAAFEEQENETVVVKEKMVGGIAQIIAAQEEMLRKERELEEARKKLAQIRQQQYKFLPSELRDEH

Target: integrin β3 (human (endogenous in HEL)) (UniProt P05106)
Experiment: proximity ligation; Duolink in situ PLA in unstimulated HEL cells (nontransfected or expressing RAP1B-WT, -G12E, -G12V, -G60R) plated on fibrinogen-coated coverslips (10 ug/mL, 30 min, 37°C), fixed and permeabilised; mouse monoclonal against integrin αIIbβ3 (clone P2) and rabbit polyclonal against talin-1; a dot when the probes are <40 nm apart

With talin-1 (from UniProt Q9Y490 1-2541) the binding was “binds”.
